According to the odorant receptor screen of Mainland et al. (2015):
Several values for one entry are separate records, joined by “and”; a condition that tells them apart may be missing. Equal values may be shown once. Some of the results follow. Each value is one well over the wells without odorant, computed here; the data are noisy.

Test system: OR5V1 clone 1070
Assay: odorant receptor activation (CRE luciferase / Renilla) (fold of no-odor wells); higher = more activation
Conditions: 100 µM

Structure (SMILES) | odorant receptor activation
COC(=O)c1ccccc1 [methyl benzoate] | 2.53
CCCCCOC(C)=O [n-amyl acetate] | 2.63
CC1COCc2cc3c(cc21)C(C)(C)C(C)C3(C)C (configuration not stated) [galaxolide] | 2.08
C=CCc1ccc(OC(C)=O)c(OC)c1 [eugenol acetate] | 1.81
CC12CCC(CC1)C(C)(C)O2 [cineole] | 0.945
CCCC(=O)O [butyric acid] | 1.31
CCCCCC(C)=O [2-heptanone] | 0.667
CC(C)(C)c1ccc(CCC=O)cc1 [bourgeonal] | 0.949
CC(=O)OC1CC2CCC1(C)C2(C)C (configuration not stated) [isobornyl acetate] | 1.09
CCCCO [1-butanol] | 2.35
CC(=O)c1ccccc1 [acetophenone] | 1.14
COc1ccccc1O [guaiacol] | 0.908
O=CCc1ccccc1 [phenyl acetaldehyde] | 0.94
CC12C=CCC1C1CCC3CC(=O)CCC3(C)C1CC2 (configuration not stated) [androstenone] | 1.62
C=C(C)C1CC=C(C)C(=O)C1 (configuration not stated) [r-carvone] | 0.939
CCCCCCC=O [heptaldehyde] | 2.2 and 1.96
C=C(C)C1CC=CCC1 (configuration not stated) [r-limonene] | 1.09 and 2.06
COC(=O)c1ccccc1O [methyl salicylate] | 1.21
CCCCCCCCOC(C)=O [octyl acetate] | 1.17
CCC1(O)C2(C)CCC(C2)C1(C)C (configuration not stated) [2-ethylfenchol] | 2.64
CC(C)=CCCC(C)=CC=O [citral] | 1.18
CC1=NC(C)SC1C (configuration not stated) | 1.97
CC12C=CCC1C1CCC3=CC(=O)CCC3(C)C1CC2 (configuration not stated) [androstadienone] | 3.17
O=C1CCCCCCCCCCCC(=O)OCCO1 [ethylene brassylate] | 1.53
CCCCCC(=O)O [caproic acid] | 1.06
O=C1CCCCC1 [Cyclohexanone] | 1.39
CC(C)CC(=O)O [isovaleric acid] | 1.57

Test system: OR6A2 clone 1489
Assay: as above
Conditions: 100 µM

Structure (SMILES) | odorant receptor activation
COC(=O)c1ccccc1 [methyl benzoate] | 0.718 and 1.06
CCCCCOC(C)=O [n-amyl acetate] | 0.671 and 1.04
C=CCc1ccc(OC(C)=O)c(OC)c1 [eugenol acetate] | 1.57
CC12CCC(CC1)C(C)(C)O2 [cineole] | 0.9
CCCC(=O)O [butyric acid] | 1.03
CCCCCC(C)=O [2-heptanone] | 0.858 and 0.75
CC(C)(C)c1ccc(CCC=O)cc1 [bourgeonal] | 0.791
CC(=O)OC1CC2CCC1(C)C2(C)C (configuration not stated) [isobornyl acetate] | 0.958 and 1.16
CCCCO [1-butanol] | 1.25
CC(=O)c1ccccc1 [acetophenone] | 1.43 and 1.06
COc1ccccc1O [guaiacol] | 1.05 and 1.14
O=CCc1ccccc1 [phenyl acetaldehyde] | 1.5
CC12C=CCC1C1CCC3CC(=O)CCC3(C)C1CC2 (configuration not stated) [androstenone] | 0.964
C=C(C)C1CC=C(C)C(=O)C1 (configuration not stated) [r-carvone] | 0.912
C=C(C)C1CC=CCC1 (configuration not stated) [r-limonene] | 0.93 and 0.565 and 1.09
COC(=O)c1ccccc1O [methyl salicylate] | 1.09
CCCCCCCCOC(C)=O [octyl acetate] | 1.03
CCC1(O)C2(C)CCC(C2)C1(C)C (configuration not stated) [2-ethylfenchol] | 1.34
CC(C)=CCCC(C)=CC=O [citral] | 0.984
CC1=NC(C)SC1C (configuration not stated) | 1.56 and 0.986
CC12C=CCC1C1CCC3=CC(=O)CCC3(C)C1CC2 (configuration not stated) [androstadienone] | 1.4 and 1.44
O=C1CCCCCCCCCCCC(=O)OCCO1 [ethylene brassylate] | 1.2
CCCCCC(=O)O [caproic acid] | 0.873
O=C1CCCCC1 [Cyclohexanone] | 0.656 and 1.36
CC(C)CC(=O)O [isovaleric acid] | 0.989
